Laboratory results published in PubChem BioAssay AID504467 (National Center for Advancing Translational Sciences (NCATS), 2011).
In all, about 330,000 compounds went through this assay and about 7,700 (2.3%) were called active. The inconclusive results got no clear call from the source; some entries with a clear call stand among them for comparison. Calls come from the whole dose curve; as a rule, active = well fitted inhibition curve with a large enough effect; inconclusive = small, poorly fitted or top-dose-only effect, or effect the other way; inactive = flat fitted curve, though single readings scatter. Potencies beside an inconclusive call are fits to weak or partial responses and may not hold up.

Test: qHTS screen for small molecules that inhibit ELG1-dependent DNA repair in human embryonic kidney (HEK293T) cells expressing luciferase-tagged ELG1; note: nearly all actives have a fitted effect of over 55% in size
Details: HEK293T ELG1-luciferase reporter, luminescence, 16 h, DNA damage induced by 5-fluorouridine; activity change, negative = inhibition: at 46.1 µM (top of the series)
Summary of the method: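 Step one: seed 2,000 cells per well. Step two: pin-transfer compound or DMSO alongside 5-fluorouridine. Step three: incubate 16 hr, 37 °C, 5% CO2. Step four: add ONE-Glo, wait 30 min, read luminescence.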
% is set by controls: 0 for no effect and ±100 for the full control effect; potency is the fitted concentration of half-maximal effect.

SMILES	Potency	activity change, negative = inhibition
COc1ccccc1N1CCN(Cc2ccc(OC)c(OC)c2OC)CC1	inconclusive: 25.9 µM [inhibitor, partial curve, poor fit]	
C[C@H](CO)N1C[C@H](C)[C@@H](CN(C)C(=O)Nc2ccc3c(c2)OCO3)Oc2c(NC(=O)Nc3ccc4c(c3)OCO4)cccc2C1=O	inconclusive: 2.59 µM [inhibitor, full curve, poor fit]	
c1csc(-c2nc3c4ccccc4c4ccccc4c3[nH]2)c1	inconclusive: 29.1 µM [inhibitor, single point]	
C=CCc1cc(/C=C2/NC(=O)NC2=O)cc(OCC)c1O	inconclusive: 14.6 µM [inhibitor, partial curve, poor fit]	
CC(OC(=O)CC1CC2CCC1C2)C(=O)Nc1ccc(C(N)=O)cc1 (stereo not drawn)	inconclusive: 9.2 µM [activator, partial curve]	
CCC(=O)N1CCc2cc(Br)cc(S(=O)(=O)N(C)c3ccc(OC)cc3)c21	inconclusive: 29.1 µM [inhibitor, single point]	
COc1ccc(CC(=O)OCCc2cc3cc(OC)c(OC)cc3c(=O)o2)cc1		inactive: -4.26%
CCc1ccc(OCC(=O)NC(NC(=S)Nc2ccccc2OC)C(Cl)(Cl)Cl)cc1 (stereo not drawn)	inconclusive: 32.6 µM [inhibitor, partial curve, poor fit]	
Cn1c(C(=O)N/N=C/c2ccccc2)cc2ccccc21	inconclusive: 4.47 µM [activator, partial curve]	
c1ccc(Oc2cc(-n3cccn3)ncn2)cc1	inconclusive: 16.4 µM [activator, partial curve]	
COc1ccc(Cl)cc1NC(=O)C/C(C)=N/NC(=O)c1ccc(O)cc1		inactive: -0.0355%
CCN(CC)CCc1nc(-c2ccccc2)no1		inactive: 22.8%
CCc1ccc(C(=O)Nc2ccc3c(c2)n(C)c(=O)n3C)cc1	inconclusive: 31.6 µM [activator, single point]	
CCOC(=O)N1CCC(N(CCN(C)C)C(=S)Nc2cc(Cl)cc(Cl)c2)CC1	inconclusive: 20.6 µM [inhibitor, single point]	
CN(Cc1cnn(-c2ccc(F)cc2)c1)Cc1nc(Cc2ccccc2)no1	inconclusive: 20.6 µM [inhibitor, single point]	
Cc1ccc(C(=O)Nc2ccc(N3CCCC3)cc2)c(C)c1		inactive: 0.29%
CCOCCOC(=O)c1[nH]c2c(c1C)C(=O)CC(c1ccc(N(C)C)cc1)C2 (stereo not drawn)	inconclusive: 20.6 µM [inhibitor, single point]	
CC(C)(C)C(=O)/C(=C/c1ccc(Cl)cc1)n1cncn1	inconclusive: 16.4 µM [inhibitor, partial curve, poor fit]	

Some values from the results shown:
activity change, negative = inhibition with `COc1ccc(CC(=O)OCCc2cc3cc(OC)c(OC)cc3c(=O)o2)cc1` is entered as inactive: -4.26%
Potency with `CN(Cc1cnn(-c2ccc(F)cc2)c1)Cc1nc(Cc2ccccc2)no1` is entered as inconclusive: 20.6 µM [inhibitor, single point]
